Assay results reported in patent US20230312709A1.
Numbering of substitutions follows the chain as printed. These are yes or no findings as the source states them, for the method shown. Some entries that bind do so weakly or less than the wild type.

The chains behind the UniProt entries cited, without tags or fusion partners. Residues count along the entry.
UniProt Q08722, residues 19-323: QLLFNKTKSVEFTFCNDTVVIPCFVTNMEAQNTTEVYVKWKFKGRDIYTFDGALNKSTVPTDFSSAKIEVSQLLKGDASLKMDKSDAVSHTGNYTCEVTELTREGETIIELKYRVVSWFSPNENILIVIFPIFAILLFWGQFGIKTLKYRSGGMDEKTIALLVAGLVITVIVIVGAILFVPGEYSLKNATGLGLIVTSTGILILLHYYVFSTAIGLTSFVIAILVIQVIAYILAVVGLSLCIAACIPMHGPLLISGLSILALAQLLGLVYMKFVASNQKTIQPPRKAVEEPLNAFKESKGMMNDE

Tests used:
[1] = molecular target: human RBC (human) (UniProt Q08722); assay: flow cytometry on human red blood cells, PE goat anti-human IgG Fc secondary, MFI [upper left panel]
[2] = molecular target: human RBC (human) (UniProt Q08722); assay: flow cytometry on human red blood cells, PE goat anti-human IgG Fc secondary, MFI [upper right panel]
[3] = molecular target: human RBC (human) (UniProt Q08722); assay: flow cytometry on human red blood cells, PE goat anti-human IgG Fc secondary, MFI [lower left panel]
[4] = molecular target: human platelets (CD61 APC-positive gate P1); assay: flow cytometry on diluted human whole blood, platelets gated as CD61 APC-positive (P1), PE goat anti-human IgG Fc secondary [panel 7A11H12 : P1]

B1: 7A11H32 (antibody, V domains shown)
VH: QVQLVQSGAEVKKPGSSVKVSCKASGSSFTSNWMNWVRQAPGQGLEWIGMIHPSDSETRLNQKFKDRVTITADKSTSTAYMELSSLRSEDTAVYYCARGTTVVDAFAYWGQGTTVTVSS
VL: DIQMTQSPSSLSASVGDRVTMTCKSSQSLLNSRTRKNYLAWYQQKPGKAPKLLIYWASTRESGVPSRFSGSGSGTDFTLTISSLQPEDFATYYCKQSYNLRTFGGGTKLEIK
binding [1]: binds

B2: 7A11H22 (antibody, V domains shown)
VH: B1 VH with S16A, V68A, I70L, A72V
VL: B1 VL
binding [2]: binds

B3: 7A11H42 (antibody, V domains shown)
VH: B1 VH with K65Q, D66G
VL: B1 VL
binding [2]: binds

B4: 7A11H52 (antibody, V domains shown)
VH: B1 VH with S27G, S28T, K65Q, D66G
VL: B1 VL
binding [3]: binds

B5: 7A11H33 (antibody, V domains shown)
VH: B1 VH
VL: B1 VL with S32T
binding [3]: binds

B6: 7A11H12 (antibody, V domains shown)
VH: B1 VH with S7P, S16A, V20L, V68A, I70L, A72V, L86P
VL: B1 VL
binding [4]: binds
